Source: PubChem BioAssay AID662 (National Center for Advancing Translational Sciences (NCATS), 2007)
The list shows a part of the results. Further columns of the screen follow, without active or inactive calls. Compounds called inactive in the main read-out are mostly missing here. Potencies come from curve fits of mixed quality, noted in brackets.

test: Cell signaling CRE-BLA (Fsk stim); conditions: CHO CRE-bla reporter (cAMP response element driving beta-lactamase), forskolin EC10, beta-lactamase ratio; measured here: 460 nm blue channel
How it was run: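 CRE-bla CHO cells stimulated with EC10 NKH 477 (water-soluble forskolin) and compound titrations, 3 h at 37C; beta-lactamase read with CCF4 after 2 h at room temperature. Activity from 460/530 nm emission ratio, AC50 values for positive or negative modulation.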

Structure (SMILES) | AC50
COc1ccc(-c2nc3cnc(N4CCNCC4)nc3n(CCC#N)c2=O)cc1 | 7.94 µM [rising, partial curve]
N#CCSc1nc2cc(C(=O)N3CCC(C(N)=O)CC3)ccc2c2nc3ccccc3n12 | 1.26 µM [rising, full curve]
Cc1cc(C(=O)CSc2nnnn2C)c(C)n1-c1ccc2c(c1)OCCO2 | 0.0158 µM [falling, full curve, poor fit]
COc1ccc(C)cc1S(=O)(=O)Nc1cccc(Cl)c1 | 0.00398 µM [falling, full curve, poor fit]
N=c1n(CCN2CCOCC2)c2ccccc2n1Cc1ccccc1Br | 2.51 µM [falling, partial curve]
Cc1cc(C)c2cc3c(ccn3C3OC[C@H](O)[C@H](O)[C@H]3O)cc2n1 (stereo partly drawn) | 6.31 µM [falling, partial curve]
Cn1cc(Br)c(C(=O)NC2CCCCC2)n1 | 5.01 µM [falling, single point]
CCc1nc2c(cnn2-c2ccc(Cl)cc2)c(=O)n1-c1ccc2c(c1)OCCO2 | 0.631 µM [falling, partial curve, poor fit]
CC12CN(C(=O)c3ccccc3)C3(C#N)CC1CCC23C (stereo not drawn) | 0.398 µM [rising, full curve, poor fit]
Cc1cc(Oc2ccc(-c3ccccc3)cc2)n2ncnc2n1 | 0.398 µM [falling, full curve, poor fit]
O=C(Cn1cccc1C(=O)c1ccccc1)NCCN1CCOCC1 | 0.0631 µM [falling, partial curve, poor fit]
c1ccc2c(c1)CCCN2Cc1nnnn1CC1CCCO1 (stereo not drawn) | 0.01 µM [falling, full curve, poor fit]
CCN1C(=O)c2ccc(C(=O)NCc3ccccc3)cc2C1=O | 12.6 µM [rising, partial curve]
CNc1ncnc2ccc(-c3ccccc3C#N)cc12 | 10 µM [rising, partial curve]
CCCCOC(=O)C(C)Nc1n[nH]c(=O)[nH]c1=O (stereo not drawn) | 15.8 µM [falling, partial curve]
CC(C)(C)c1cc(C(c2cccnc2)N2CCN(CCO)CC2)cc(C(C)(C)C)c1O (stereo not drawn) | 3.16 µM [falling, single point]
Cn1c(C(=O)NCCCN2CCCC2=O)cc2c(=O)n3ccccc3nc21 | 2 µM [rising, partial curve]
COC(=O)c1sc(N)c(C(=O)OC)c1COC(=O)C1CC(=O)N(Cc2ccco2)C1 (stereo not drawn) | 12.6 µM [rising, partial curve]
COc1ccc2nc(SCC(=O)N(C)C3CCCCC3)c(C#N)cc2c1 | 10 µM [rising, partial curve]
COc1ccc(OC)c(N2C(=O)C(Cl)=C(N3CCCCC3)C2=O)c1 | 5.01 µM [falling, partial curve]
COc1ccc(CCNC(=O)c2ccc3nc(-c4ccco4)c(-c4ccco4)nc3c2)cc1OC | 2.51 µM [rising, single point]
Cc1cc(=O)n2nc(N3CCCC(C(=O)NCc4ccc5c(c4)OCO5)C3)sc2n1 (stereo not drawn) | 25.1 µM [rising, partial curve, poor fit]

Structure (SMILES) | AC50
O=C1c2cccc3cccc(c23)C(=O)N1c1cccnc1 | 25.1 µM [rising, single point]
COc1cc(SC)ccc1C(=O)OC1CCOC1=O (stereo not drawn) | 25.1 µM [falling, single point]
Cc1cc(C(F)(F)F)nc(NCc2ccc(F)cc2)n1 | 25.1 µM [rising, single point]
COc1ccc(Cl)cc1NC(=O)CN1CCC(n2nnc3ccccc32)CC1 | 3.98 µM [rising, partial curve]
COc1ccc(NC(=O)Cn2nnc(C(=O)NCc3ccccc3OC)c2N)cc1Cl | 10 µM [falling, partial curve]
COc1cc(OC)cc(C(=O)Nc2cc(NC(=O)c3ccco3)ccc2OC)c1 | 15.8 µM [rising, single point]
CCN(CC)CCNC(=O)c1cc2c(-c3ccc(Cl)cc3)nn(C)c2s1 | 15.8 µM [rising, single point]
Cc1ccc(C)c(N2CCN(C(=O)c3ccc(NS(=O)(=O)c4c(C)noc4C)cc3)CC2)c1 | 12.6 µM [rising, partial curve]
COC(=O)c1[nH]c2cc(C)ccc2c1NC(=O)CN1CCc2cc(OC)c(OC)cc2C1 | 0.501 µM [rising, full curve, poor fit]
Cc1ccc(C)c(C(=O)CC2(O)C(=O)N(C)c3ccccc32)c1 (stereo not drawn) | 0.00316 µM [falling, full curve, poor fit]
CCn1c(SC/C=C/c2ccccc2)nnc1-c1cnccn1 | 5.01 µM [rising, single point]
O=C(c1cccs1)c1ccc(-c2cccs2)s1 | 10 µM [rising, partial curve]
Cc1noc(C)c1S(=O)(=O)NCC(=O)O | 0.0158 µM [falling, full curve, poor fit]
COc1cccc(NC(=O)c2ccccc2-c2nc(-c3ccc(Cl)cc3)no2)c1 | 0.126 µM [falling, full curve, poor fit]
COc1ccc2nc(Nc3ccc4c(c3)OCO4)sc2c1 | 12.6 µM [rising, single point]
CCN(CCCNC(=O)COc1cc(=O)n(C)c2ccccc12)c1ccccc1 | 10 µM [rising, single point]
Cc1c(N=c2c(=O)c3ccccc3c2=O)c(=O)n(-c2ccccc2)n1C | 15.8 µM [rising, single point]
COc1ccc(-c2nnc(CSc3nc4ccccc4c(=O)n3CC(C)C)o2)cc1OC | 3.16 µM [rising, full curve]
CCn1cc(C(=O)O)c(=O)c2ccc(Cc3ccccc3)nc21 | 31.6 µM [rising, single point]
Cn1c(=O)[nH]c(=O)c2c1nc(N1CCCCCC1)n2CCSc1nc2ccccc2[nH]1 | 20 µM [rising, single point]
CCn1c(C)csc1=NC(=O)c1ccccc1 | 0.02 µM [falling, full curve, poor fit]

An excerpt of these results, tab-delimited.
Structure (SMILES)	AC50
CCn1c(SC/C=C/c2ccccc2)nnc1-c1cnccn1	5.01 µM [rising, single point]
O=C(c1cccs1)c1ccc(-c2cccs2)s1	10 µM [rising, partial curve]
